Results are given in words; binding and its absence hold for the method and conditions named. Binding seen in cells or lysates may run through a third protein. These calls come from enrichment with a bait or labelling near it, and not all partners need be listed.

For this test, the target named is Flag p21 WT, P38936. In words: affinity purification with mass spectrometry. Conditions: remark: other sources report otherwise.

B1: CDK4, P11802 1-303 (protein)
chain: MATSRYEPVAEIGVGAYGTVYKARDPHSGHFVALKSVRVPNGGGGGGGLPISTVREVALLRRLEAFEHPNVVRLMDVCATSRTDREIKVTLVFEHVDQDLRTYLDKAPPPGLPAETIKDLMRQFLRGLDFLHANCIVHRDLKPENILVTSGGTVKLADFGLARIYSYQMALTPVVVTLWYRAPEVLLQSTYATPVDMWSVGCIFAEMFRRKPLFCGNSEADQLGKIFDLIGLPPEDDWPRDVSLPRGAFPPRGPRPVQSVVPEMEESGAQLLLEMLTFNPHKRISAFRALQHSYLHKDEGNPE
Consider B1, for which the binding entry is on record as “binds”.

The record behind these values is publication doi:10.1101/2025.07.28.666126.
